We go through one molecule from article PMC9298926.

This test addresses SsPE14-YFP (SsPele1-YFP) (Sporisorium scitamineum). As to the kind of experiment: co-IP; transient co-expression in N. benthamiana leaves, 48 h; lysate in 50 mM Tris pH7.5, 150 mM NaCl, 10% glycerol, 2 mM EDTA, 5 mM DTT, 0.1% Triton; IP with GFP-Trap beads 2 h at 4°C; blots with anti-FLAG and anti-GFP.

These are yes or no findings as the source states them, for the method shown. Binding seen in cells or lysates may run through a third protein. A result given as binding can be weak or reduced; the word gives no strength. Sequences can lack the tags named with a protein.

B1: AtPEPR1-FLAG (receptor, UniProt Q9SSL9 29-1123)
chain: LNSDGLTLLSLLKHLDRVPPQVTSTWKINASEATPCNWFGITCDDSKNVASLNFTRSRVSGQLGPEIGELKSLQILDLSTNNFSGTIPSTLGNCTKLATLDLSENGFSDKIPDTLDSLKRLEVLYLYINFLTGELPESLFRIPKLQVLYLDYNNLTGPIPQSIGDAKELVELSMYANQFSGNIPESIGNSSSLQILYLHRNKLVGSLPESLNLLGNLTTLFVGNNSLQGPVRFGSPNCKNLLTLDLSYNEFEGGVPPALGNCSSLDALVIVSGNLSGTIPSSLGMLKNLTILNLSENRLSGSIPAELGNCSSLNLLKLNDNQLVGGIPSALGKLRKLESLELFENRFSGEIPIEIWKSQSLTQLLVYQNNLTGELPVEMTEMKKLKIATLFNNSFYGAIPPGLGVNSSLEEVDFIGNKLTGEIPPNLCHGRKLRILNLGSNLLHGTIPASIGHCKTIRRFILRENNLSGLLPEFSQDHSLSFLDFNSNNFEGPIPGSLGSCKNLSSINLSRNRFTGQIPPQLGNLQNLGYMNLSRNLLEGSLPAQLSNCVSLERFDVGFNSLNGSVPSNFSNWKGLTTLVLSENRFSGGIPQFLPELKKLSTLQIARNAFGGEIPSSIGLIEDLIYDLDLSGNGLTGEIPAKLGDLIKLTRLNISNNNLTGSLSVLKGLTSLLHVDVSNNQFTGPIPDNLEGQLLSEPSSFSGNPNLCIPHSFSASNNSRSALKYCKDQSKSRKSGLSTWQIVLIAVLSSLLVLVVVLALVFICLRRRKGRPEKDAYVFTQEEGPSLLLNKVLAATDNLNEKYTIGRGAHGIVYRASLGSGKVYAVKRLVFASHIRANQSMMREIDTIGKVRHRNLIKLEGFWLRKDDGLMLYRYMPKGSLYDVLHGVSPKENVLDWSARYNVALGVAHGLAYLHYDCHPPIVHRDIKPENILMDSDLEPHIGDFGLARLLDDSTVSTATVTGTTGYIAPENAFKTVRGRESDVYSYGVVLLELVTRKRAVDKSFPESTDIVSWVRSALSSSNNNVEDMVTTIVDPILVDELLDSSLREQVMQVTELALSCTQQDPAMRPTMRDAVKLLEDVKHLARSCSSDSVR
Consider B1, for which the binding entry was “binds”.
